PubChem BioAssay AID504764, Drosophila RNAi Screening Center, 2011
Assay: 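Knock-downs that raise or lower a Notch target reporter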 (primary screen). System: Drosophila Kc167 cells. Knock-down reagent: long dsRNA against Drosophila genes. Duration: about 5 days (4 days dsRNA, then 24 h after transfection). Treatment: transfection of constitutively active membrane-tethered Notch lacking the extracellular domain, read 24 h later. Read-out: 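Light from a Notch-responsive E(spl)m3 luciferase reporter under active Notch, with control-promoter and no-Notch reporter wells to normalise; raw counts from paired wells a and b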. Scale: induced reporter light, run 1, well a and induced reporter light, run 1, well b: higher = more light from the Notch target reporter with active Notch; control promoter light, run 1, well a and control promoter light, run 1, well b: higher = more light from the viral control promoter (cell number, transfection, viability); uninduced reporter light, run 1, well a: higher = more light from the Notch target reporter without active Notch. Call rule: 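Wells with low control signal or poorly matching duplicates excluded; duplicates averaged; per source plate, z beyond ±2 for induced/control log2 ratio or beyond ±1.8 for induced/uninduced marks a hit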. Calls: active = modifier hit (raised or lowered Notch signal); inactive = not a hit.
The deposit covers about 22,000 reagents; below is a random part of those that have a named target and a result. In the full data, 403 (1.9%) are marked active. 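Unnormalised raw counts per well; ratio z-scores behind the hit calls and whether each hit raises or lowers signal are not deposited.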 Names joined by + are all predicted targets of the reagent. Not given: the amount of reagent.

CG34230 [DRSC05317] | induced reporter light, run 1, well a: 2.49e5; induced reporter light, run 1, well b: 2.21e5; control promoter light, run 1, well a: 2.74e5; control promoter light, run 1, well b: 3.30e5; uninduced reporter light, run 1, well a: 17920; Outcome: inactive
Gar1 [DRSC04441] | induced reporter light, run 1, well a: 45750; induced reporter light, run 1, well b: 25195; control promoter light, run 1, well a: 38430; control promoter light, run 1, well b: 65965; uninduced reporter light, run 1, well a: 2615; Outcome: inactive
Vsx1 [DRSC18349] | induced reporter light, run 1, well a: 1.29e5; induced reporter light, run 1, well b: 1.72e5; control promoter light, run 1, well a: 2.23e5; control promoter light, run 1, well b: 2.84e5; uninduced reporter light, run 1, well a: 11795; Outcome: inactive
Vsx1 [DRSC18350] | induced reporter light, run 1, well a: 37040; induced reporter light, run 1, well b: 34665; control promoter light, run 1, well a: 51895; control promoter light, run 1, well b: 54905; uninduced reporter light, run 1, well a: 7560; Outcome: inactive
CG13135 [DRSC02232] | induced reporter light, run 1, well a: 1.07e5; induced reporter light, run 1, well b: 1.21e5; control promoter light, run 1, well a: 72625; control promoter light, run 1, well b: 1.11e5; uninduced reporter light, run 1, well a: 14400; Outcome: inactive
CG11381 [DRSC17780] | induced reporter light, run 1, well a: 20565; induced reporter light, run 1, well b: 22800; control promoter light, run 1, well a: 30325; control promoter light, run 1, well b: 33200; uninduced reporter light, run 1, well a: 3982; Outcome: inactive
Atg10 + CG18853 + CG12822 [DRSC20757] | induced reporter light, run 1, well a: 1.88e5; induced reporter light, run 1, well b: 1.63e5; control promoter light, run 1, well a: 3.25e5; control promoter light, run 1, well b: 2.81e5; uninduced reporter light, run 1, well a: 14545; Outcome: inactive
Obp49a [DRSC22562] | Outcome: inactive
Larp4B [DRSC08192] | induced reporter light, run 1, well a: 41100; induced reporter light, run 1, well b: 42095; control promoter light, run 1, well a: 63095; control promoter light, run 1, well b: 46615; uninduced reporter light, run 1, well a: 3205; Outcome: inactive
eIF2Bepsilon [DRSC18769] | induced reporter light, run 1, well a: 1.19e5; induced reporter light, run 1, well b: 1.31e5; control promoter light, run 1, well a: 1.76e5; control promoter light, run 1, well b: 1.75e5; uninduced reporter light, run 1, well a: 7410; Outcome: inactive
CG14082 [DRSC10086] | induced reporter light, run 1, well a: 1.17e5; induced reporter light, run 1, well b: 1.03e5; control promoter light, run 1, well a: 69910; control promoter light, run 1, well b: 70025; uninduced reporter light, run 1, well a: 6340; Outcome: inactive
DNAlig3 [DRSC15201] | induced reporter light, run 1, well a: 56885; induced reporter light, run 1, well b: 59505; control promoter light, run 1, well a: 39200; control promoter light, run 1, well b: 36865; uninduced reporter light, run 1, well a: 2880; Outcome: inactive

2 entries already listed, ordered by “induced reporter light, run 1, well b”, high to low:
CG13135 [DRSC02232] | induced reporter light, run 1, well a: 1.07e5; induced reporter light, run 1, well b: 1.21e5; control promoter light, run 1, well a: 72625; control promoter light, run 1, well b: 1.11e5; uninduced reporter light, run 1, well a: 14400; Outcome: inactive
Vsx1 [DRSC18350] | induced reporter light, run 1, well a: 37040; induced reporter light, run 1, well b: 34665; control promoter light, run 1, well a: 51895; control promoter light, run 1, well b: 54905; uninduced reporter light, run 1, well a: 7560; Outcome: inactive
